Results taken from patent publication US7052910B2, “Skeletal cell model to screen anti-diabetic compounds” (Council of Scientific and Industrial Research, priority 2001, dated 2006).
“Also recorded” adds a separate entry of the source. At least one structure is not confirmed: it was looked up by name or label, or the drawing left a doubt.

Assays:
[1] = system: IR-β; assay: Tyrosine phosphorylation and expression of IR-β in C2C12 myotubes differentiated in serum free medium without (MF) or with chronic insulin (MFI); immunoprecipitation and immunoblot; format: cell-based, mouse; settings: 50 μM pioglitazone for last 24 hr
Description: (§1) FIG. 5 represents the effect of insulin stimulation on control and chronically insulin-differentiated cells: Cells were stimulated with 100 nm of insulin for 5 min. Cell lysates were run on sodium dodecyl sulphate-7%-polyacrylamide gel electrophoresis (SDS-7%-PAGE) and were immunoblotted with antiphosphotyrosine antibody (A) or anti-IRS-1 antibody (C) or anti-IR-β antibody (E). Cell lysates were immunoprecipitated with antibodies to IRS-1 (B) or IR-β (D) and immunoblotted (IB) with antiphosphotyrosine antibody; and FIG. 6 represents the effect of pioglitazone on tyrosine phosphorylation of IRS-1 and IR-β: Pioglitazone was added at 50 μM concentration during the last day of differentiation for 24 hr. Then, the cells were stimulated with 100 nm of insulin for 5 min. Cell lysate were immunoblotted (IB) with antiphosphotyrosine antibody (A) or α-IRS-1 (B). Cell lysates of the samples prepared the same immunoprecipitated (IP) with antibodies and immunoblotted (IB) with antiphosphotyrosine (C) or anti-IR-β (D) antibodies. C2C12 cells were grown in DMEM (Dulbecco's Modified Eagle Medium) containing 15% FCS (fetal calf serum). The cells were differentiated in serum free medium in the absence or chronic presence of 100 nm insulin. After three days the differentiation was complete. […]

[2] = system: IRS-1; assay: Tyrosine phosphorylation and expression of IRS-1 in C2C12 myotubes differentiated in serum free medium without (MF) or with chronic insulin (MFI); immunoblot; format: cell-based, mouse; settings: 50 μM pioglitazone for last 24 hr of differentiation
Description: as §1

[3] = system: IR and IRS-1; settings: insulin resistant Wistar fatty rats; Hayakawa et al., BBRC 1996; cited from earlier work

SMILES: CCc1ccc(CCOc2ccc(CC3SC(=O)NC3=O)cc2)nc1 (centres unmarked) [pioglitazone]
- levels of expression of IR-β ([1]; FIG. 6D): did not affect the respective levels of expression of IR-β
- tyrosine phosphorylation of IR-β ([1]; with or without insulin stimulation, FIG. 6C): able to enhance the tyrosine phosphorylation of IR-β
- expression levels of IRS-1 ([2]; C2C12 myotubes, FIG. 6B): did not affect the expression levels of IRS-1
- tyrosine phosphorylation of IRS-1 ([2]; insulin-resistant (MFI) C2C12 myotubes, stimulated with 100 nm insulin 5 min, FIG. 6A): able to increase the tyrosine phosphorylation of IRS-1; also recorded: became comparable to that of normal condition
- tyrosine phosphorylation of IR and IRS-1 in skeletal muscles [3]: enhances the tyrosine phosphorylation of IR and IRS-1
